# This is one part of the list.
# Key:
# Experiment in all cases: glycan array binding signal (z-score within array); higher = stronger binding
# Settings in all cases: glycan notation: IUPAC condensed, linker removed
# [1] = target: Gal(b1-4)GlcNAc(b1-3)Gal(b1-4)GlcNAc(b1-6)[Gal(b1-3)]GalNAc
# Method in brief: (§1)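 Glycan array data were curated from 3228 arrays in the Consortium for Functional Glycomics database and kept only where the protein sequence was available. Glycan names were converted to IUPAC-condensed notation, and columns mapping to the same glycan were averaged. The binding signal is a within-array Z-score, averaged across arrays of the same protein sequence at different concentrations or buffers and across linkers. Negative Z-scores can be read as non-binding.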
# [2] = target: Gal(b1-4)GlcNAc(b1-3)Gal(b1-4)[Fuc(a1-3)]GlcNAc(b1-3)Gal(b1-4)[Fuc(a1-3)]GlcNAc
# Method in brief: as §1
# [3] = target: Gal(b1-4)GlcNAc(b1-3)GalNAc
# Method in brief: as §1
# [4] = target: Gal(b1-4)GlcNAc(b1-3)[Fuc(a1-3)GlcNAc(b1-6)]Gal(b1-4)Glc
# Method in brief: as §1
# [5] = target: Gal(b1-4)GlcNAc(b1-3)[Gal(b1-4)GlcNAc(b1-6)]Gal(b1-4)GlcNAc
# Method in brief: as §1
# [6] = target: Gal(b1-4)GlcNAc(b1-3)[GlcNAc(b1-6)]Gal(b1-4)GlcNAc
# Method in brief: as §1
# [7] = target: Gal(b1-4)GlcNAc(b1-6)Gal(b1-4)GlcNAc
# Method in brief: as §1
# [8] = target: Gal(b1-4)GlcNAc(b1-6)GalNAc
# Method in brief: as §1
# [9] = target: Gal(b1-4)GlcNAc(b1-6)[Gal(b1-3)]GalNAc
# Method in brief: as §1
# [10] = target: Gal(b1-4)GlcNAc(b1-6)[Gal(b1-4)GlcNAc(b1-3)]GalNAc
# Method in brief: as §1
# Gal(b1-4)GlcNAc6P = target: Gal(b1-4)GlcNAc6P
# Method in brief: as §1
# Gal(b1-6)Gal = target: Gal(b1-6)Gal
# Method in brief: as §1
# Gal3S(b1-3)GalNAc = target: Gal3S(b1-3)GalNAc
# Method in brief: as §1
# Gal3S(b1-3)GlcNAc = target: Gal3S(b1-3)GlcNAc
# Method in brief: as §1
# [11] = target: Gal3S(b1-3)[Fuc(a1-4)]GlcNAc
# Method in brief: as §1
# Gal3S(b1-4)Glc = target: Gal3S(b1-4)Glc
# Method in brief: as §1
# Gal3S(b1-4)Glc6S = target: Gal3S(b1-4)Glc6S
# Method in brief: as §1
# Gal3S(b1-4)GlcNAc = target: Gal3S(b1-4)GlcNAc
# Method in brief: as §1
# [12] = target: Gal3S(b1-4)[Fuc(a1-3)]Glc6S
# Method in brief: as §1
# [13] = target: Gal3S(b1-4)[Fuc(a1-3)]GlcNAc
# Method in brief: as §1
# [14] = target: Gal3S(b1-4)[Fuc(a1-3)]GlcNAc6S
# Method in brief: as §1
# Gal3S4S(b1-4)GlcNAc = target: Gal3S4S(b1-4)GlcNAc
# Method in brief: as §1
# Gal3S6S(b1-4)GlcNAc = target: Gal3S6S(b1-4)GlcNAc
# Method in brief: as §1
# Gal3S6S(b1-4)GlcNAc6S = target: Gal3S6S(b1-4)GlcNAc6S
# Method in brief: as §1
# Gal4S(b1-4)GlcNAc = target: Gal4S(b1-4)GlcNAc
# Method in brief: as §1
# Gal4S6S(b1-4)GlcNAc = target: Gal4S6S(b1-4)GlcNAc
# Method in brief: as §1
# Gal6P(b1-4)GlcNAc = target: Gal6P(b1-4)GlcNAc
# Method in brief: as §1
# Gal6S(b1-3)GlcNAc = target: Gal6S(b1-3)GlcNAc
# Method in brief: as §1
# Gal6S(b1-3)GlcNAc6S = target: Gal6S(b1-3)GlcNAc6S
# Method in brief: as §1
# Gal6S(b1-4)Glc = target: Gal6S(b1-4)Glc
# Method in brief: as §1
# Gal6S(b1-4)Glc6S = target: Gal6S(b1-4)Glc6S
# Method in brief: as §1
# Gal6S(b1-4)GlcNAc = target: Gal6S(b1-4)GlcNAc
# Method in brief: as §1
# Gal6S(b1-4)GlcNAc6S = target: Gal6S(b1-4)GlcNAc6S
# Method in brief: as §1
# GalNAc(a1-3)Gal = target: GalNAc(a1-3)Gal
# Method in brief: as §1
# GalNAc(a1-3)GalNAc = target: GalNAc(a1-3)GalNAc
# Method in brief: as §1
# [15] = target: GalNAc(a1-3)GalNAc(b1-3)Gal(a1-4)Gal(b1-4)Glc
# Method in brief: as §1
# [16] = target: GalNAc(a1-3)GalNAc(b1-3)Gal(a1-4)Gal(b1-4)GlcNAc
# Method in brief: as §1
# GalNAc(b1-3)Gal = target: GalNAc(b1-3)Gal
# Method in brief: as §1
# [17] = target: GalNAc(b1-3)Gal(a1-4)Gal(b1-4)GlcNAc
# Method in brief: as §1
# [18] = target: GalNAc(b1-3)Gal(a1-4)Gal(b1-4)GlcNAc(b1-3)Gal(b1-4)Glc
# Method in brief: as §1
# [19] = target: GalNAc(b1-3)Gal(a1-6)Gal(b1-4)Glc
# Method in brief: as §1
# GalNAc(b1-3)GalNAc = target: GalNAc(b1-3)GalNAc
# Method in brief: as §1
# GalNAc(b1-3)GlcNAc = target: GalNAc(b1-3)GlcNAc
# Method in brief: as §1
# GalNAc(b1-4)Gal(b1-4)Glc = target: GalNAc(b1-4)Gal(b1-4)Glc
# Method in brief: as §1
# GalNAc(b1-4)GlcNAc = target: GalNAc(b1-4)GlcNAc
# Method in brief: as §1
binder,measurement,setting,value
EUL D1A second (Oryza sativa) (protein) GAATACTIGGVPVHTVRVFSAAGEDYCLTVRNGTACLAPKNPRDDYQHWIKDMRHSNKIRDEEGYPAFALVNKVTGEAIKHSTGQGHPVKLVPYNPEYQDESVLWTESKDVGKGFRCIRMVNNIYLNFDAFHGDKDHGGIHDGTEIVLWKWCEGDNQRWKILPWILEQKLISEEDLNSAVDHHHHHH,glycan array binding signal (z-score),[1],0.838
same,glycan array binding signal (z-score),[2],1.66
same,glycan array binding signal (z-score),[3],-0.258
same,glycan array binding signal (z-score),[4],0.014
same,glycan array binding signal (z-score),[5],0.949
same,glycan array binding signal (z-score),[6],-1.47
same,glycan array binding signal (z-score),[7],-0.144
same,glycan array binding signal (z-score),[8],1.2
same,glycan array binding signal (z-score),[9],0.488
same,glycan array binding signal (z-score),[10],-0.385
same,glycan array binding signal (z-score),Gal(b1-4)GlcNAc6P,0.182
same,glycan array binding signal (z-score),Gal(b1-6)Gal,1.02
same,glycan array binding signal (z-score),Gal3S(b1-3)GalNAc,0.302
same,glycan array binding signal (z-score),Gal3S(b1-3)GlcNAc,-0.555
same,glycan array binding signal (z-score),[11],0.949
same,glycan array binding signal (z-score),Gal3S(b1-4)Glc,-0.323
same,glycan array binding signal (z-score),Gal3S(b1-4)Glc6S,-0.241
same,glycan array binding signal (z-score),Gal3S(b1-4)GlcNAc,0.255
same,glycan array binding signal (z-score),[12],2.74
same,glycan array binding signal (z-score),[13],2.4
same,glycan array binding signal (z-score),[14],0.696
same,glycan array binding signal (z-score),Gal3S4S(b1-4)GlcNAc,-0.752
same,glycan array binding signal (z-score),Gal3S6S(b1-4)GlcNAc,1.92
same,glycan array binding signal (z-score),Gal3S6S(b1-4)GlcNAc6S,0.549
same,glycan array binding signal (z-score),Gal4S(b1-4)GlcNAc,-0.126
same,glycan array binding signal (z-score),Gal4S6S(b1-4)GlcNAc,0.675
same,glycan array binding signal (z-score),Gal6P(b1-4)GlcNAc,-1.25
same,glycan array binding signal (z-score),Gal6S(b1-3)GlcNAc,0.058
same,glycan array binding signal (z-score),Gal6S(b1-3)GlcNAc6S,-1.04
same,glycan array binding signal (z-score),Gal6S(b1-4)Glc,0.271
same,glycan array binding signal (z-score),Gal6S(b1-4)Glc6S,0.949
same,glycan array binding signal (z-score),Gal6S(b1-4)GlcNAc,-0.478
same,glycan array binding signal (z-score),Gal6S(b1-4)GlcNAc6S,0.99
same,glycan array binding signal (z-score),GalNAc(a1-3)Gal,0.425
same,glycan array binding signal (z-score),GalNAc(a1-3)GalNAc,-0.302
same,glycan array binding signal (z-score),[15],0.152
same,glycan array binding signal (z-score),[16],0.93
same,glycan array binding signal (z-score),GalNAc(b1-3)Gal,-0.727
same,glycan array binding signal (z-score),[17],0.719
same,glycan array binding signal (z-score),[18],-0.809
same,glycan array binding signal (z-score),[19],-0.495
same,glycan array binding signal (z-score),GalNAc(b1-3)GalNAc,0.63
same,glycan array binding signal (z-score),GalNAc(b1-3)GlcNAc,-0.511
same,glycan array binding signal (z-score),GalNAc(b1-4)Gal(b1-4)Glc,0.707
same,glycan array binding signal (z-score),GalNAc(b1-4)GlcNAc,0.307

# Quoted at random: 2 records from the list, in no set order.
binder,measurement,setting,value
EUL D1A second (Oryza sativa) (protein) GAATACTIGGVPVHTVRVFSAAGEDYCLTVRNGTACLAPKNPRDDYQHWIKDMRHSNKIRDEEGYPAFALVNKVTGEAIKHSTGQGHPVKLVPYNPEYQDESVLWTESKDVGKGFRCIRMVNNIYLNFDAFHGDKDHGGIHDGTEIVLWKWCEGDNQRWKILPWILEQKLISEEDLNSAVDHHHHHH,glycan array binding signal (z-score),Gal6S(b1-4)GlcNAc6S,0.99
same,glycan array binding signal (z-score),[5],0.949
